Source: PubChem BioAssay AID1224828 (NIAID, 2016)
Here is a random part of about 17,000 reagents. 762 of all reagents (4.5%) were called active. 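Active calls include both raised and lowered p65 entry, mostly lowered; wells with fewer than 50 cells lack a z-score.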 Raw values vary from plate to plate and are shown uncorrected. Entries without a mark were called inactive.

- Test: 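Find genes required for NF-kappaB p65 moving into the nucleus after LPS in mouse macrophages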 (primary screen)
- System: mouse RAW264.7 G9 macrophage reporter cells (GFP-p65, Tnf promoter-mCherry)
- Knock-down reagent: siRNA pool against mouse genes, 100 nM
- Duration: 2 days siRNA transfection, then 40 min LPS before fixation
- Treatment: LPS (Salmonella minnesota R595) at 10 ng/ml
- Measurement: 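Microscopy ratio of nuclear to perinuclear-ring GFP-p65 signal, scaled to the plate median; gene score is the average of two replicate robust z-scores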
- Direction: p65 translocation robust z-score: higher = more nuclear NF-kappaB p65 after LPS than the plate median; nuclear/cytoplasmic p65 ratio: higher = more nuclear NF-kappaB p65
- Active means: 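Called active when z exceeds 3.3 or falls under -1.56 (median of Tlr4 controls), giving activity score of at least 50; no calls for control wells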
- Meaning of the calls: active = hit (p65 shift raised or lowered); inactive = no clear change

| gene symbol | PubChem SID | p65 translocation robust z-score | nuclear/cytoplasmic p65 ratio, rep 1 | nuclear/cytoplasmic p65 ratio, rep 2 | low cell count flag |
| --- | --- | --- | --- | --- | --- |
| Sertad1 | SID315471310 | -1.52 | 1.43 | 1.23 | enough cells to score |
| Vsx1 | SID315477049 | 0.72 | 1.6 | 1.61 | enough cells to score |
| Vxn | SID315475426 | 0.33 | 1.27 | 1.35 | enough cells to score |
| Or52x1 | SID315480673 | -0.25 | 1.41 | 1.27 | enough cells to score |
| Scnn1a | SID315469122 | 0.59 | 1.49 | 1.79 | enough cells to score |
| Fam43a | SID315478321 | 0.9 | 1.73 | 1.97 | enough cells to score |
| Or8b41 | SID315480152 | -0.06 | 1.36 | 1.26 | enough cells to score |
| LOC67527 | SID315473080 | 0.36 | 1.55 | 1.53 | enough cells to score |
| Cldn14 | SID315471377 | 0.78 | 1.65 | 1.41 | enough cells to score |
| Pard6a | SID315471583 | 1.65 | 1.7 | 1.4 | enough cells to score |
| Ldah | SID315473646 | – | 2.4 | 1.41 | fewer than 50 cells per well; well left out of scoring |
| Bdnf | SID315465625 | 0.06 | 1.59 | 1.66 | enough cells to score |
| BC030500 | SID315479149 | -1.44 | 1.31 | 1.66 | enough cells to score |
| Ankrd55 | SID315475459 | – | 1.33 | 1.62 | fewer than 50 cells per well; well left out of scoring |
| Rictor | SID315475611 | – | 1.21 | 1.09 | fewer than 50 cells per well; well left out of scoring |
| 4930556L07Rik | SID315475094 | – | 1.33 | 1.27 | fewer than 50 cells per well; well left out of scoring |
| Pth1r | SID315468784 | 1.06 | 1.59 | 1.81 | enough cells to score |
| Tnfsf4 | SID315469885 | -0.12 | 1.49 | 1.52 | enough cells to score |
| Srrt | SID315475858 | -0.73 | 1.43 | 1.47 | enough cells to score |
| Myh1 | SID315468056 | 1.35 | 1.69 | 1.45 | enough cells to score |
| Cbr1 | SID315465799 | 0.76 | 1.61 | 1.44 | enough cells to score |
| Hypk | SID315473171 | – | 1.15 | 1.25 | fewer than 50 cells per well; well left out of scoring |
| Rbm43 | SID315474277 | 1.42 | 1.7 | 1.68 | enough cells to score |
| Bcas1 | SID315475423 | 0.02 | 1.57 | 1.67 | enough cells to score |
| Grb2 | SID315467013 | -1.55 | 1.28 | 1.13 | enough cells to score |
| L3mbtl4 | SID315481408 | – | 1.21 | 1.44 | fewer than 50 cells per well; well left out of scoring |
| L3mbtl4 | SID315481409 | -0.13 | 1.46 | 1.62 | enough cells to score |
| Cdk2 | SID315465906 | -0.83 | 1.46 | 1.65 | enough cells to score |
| Zic3 | SID315470150 | -1.56 | 1.43 | 1.25 | enough cells to score |
| Abca15 | SID315481355 | 1.69 | 1.81 | 2 | enough cells to score |
| Rarg | SID315468898 | 0.33 | 1.58 | 1.53 | enough cells to score |
| Surf6 | SID315469537 | -1.22 | 1.26 | 1.13 | enough cells to score |
| Abcb1a | SID315468491 | -1.83 (active) | 1.34 | 1.34 | enough cells to score |
| Stk38 | SID315476542 | 1.06 | 1.77 | 1.59 | enough cells to score |
| Cenpk | SID315472015 | – | 0.945 | 1.26 | fewer than 50 cells per well; well left out of scoring |
| Msi2 | SID315475352 | 0.79 | 1.9 | 1.72 | enough cells to score |
| Snx9 | SID315472543 | -0.76 | 1.46 | 1.43 | enough cells to score |
| Lrrc9 | SID315475553 | 1.83 | 1.59 | 1.52 | enough cells to score |
| Tubb2b | SID315474768 | 0.74 | 1.5 | 1.39 | enough cells to score |
| E2f6 | SID315470798 | -2.16 (active) | 0.997 | 1.25 | enough cells to score |
| Ptov1 | SID315475896 | – | 0 | 1 | fewer than 50 cells per well; well left out of scoring |
| Il9 | SID315467465 | 0.48 | 1.59 | 1.39 | enough cells to score |
| Phgdh | SID315479301 | 1.33 | 1.66 | 1.6 | enough cells to score |
| Prune1 | SID315478719 | 1.74 | 1.66 | 1.79 | enough cells to score |
| Or12e9 | SID315480034 | -2.59 (active) | 1.26 | 1.2 | enough cells to score |
| Pla2g12b | SID315473915 | 2.06 | 1.52 | 1.45 | enough cells to score |
| Oog2 | SID315481794 | -1.18 | 1.28 | 1.11 | enough cells to score |
| Traf1 | SID315469815 | 1.29 | 1.64 | 1.74 | enough cells to score |
| Spata7 | SID315476464 | -1.02 | 1.41 | 1.57 | enough cells to score |
| Parvg | SID315472065 | 1.48 | 1.62 | 1.43 | enough cells to score |
| Ffar1 | SID315479055 | -0.57 | 1.39 | 1.54 | enough cells to score |
| Mllt10 | SID315467935 | 1.17 | 1.6 | 1.49 | enough cells to score |
| Nlrp4c | SID315475845 | 1.39 | 1.61 | 1.37 | enough cells to score |
| Hrh1 | SID315467297 | 0.27 | 1.54 | 1.63 | enough cells to score |
| Vipr1 | SID315470006 | -1.26 | 1.33 | 1.41 | enough cells to score |
| Prpf3 | SID315474123 | 0.43 | 1.52 | 1.2 | enough cells to score |
| 2310022B05Rik | SID315473829 | – | 1.19 | 1.31 | fewer than 50 cells per well; well left out of scoring |
| Asprv1 | SID315473262 | 0.69 | 1.39 | 1.39 | enough cells to score |
| Or5bh3 | SID315480070 | 1.74 | 1.85 | 1.67 | enough cells to score |

Reagents listed above with an active call (3):
| gene symbol | PubChem SID | p65 translocation robust z-score | nuclear/cytoplasmic p65 ratio, rep 1 | nuclear/cytoplasmic p65 ratio, rep 2 | low cell count flag |
| --- | --- | --- | --- | --- | --- |
| Abcb1a | SID315468491 | -1.83 (active) | 1.34 | 1.34 | enough cells to score |
| E2f6 | SID315470798 | -2.16 (active) | 0.997 | 1.25 | enough cells to score |
| Or12e9 | SID315480034 | -2.59 (active) | 1.26 | 1.2 | enough cells to score |
